Source: patent EP4496786B1, “CRYSTALLINE FORM OF 2-ACRYLAMIDO-2-METHYLPROPANESULPHONIC ACID POTASSIUM SALT” (SNF Group, priority 2023, dated 2024)

Assay: Corrosivity of different forms of ATBS on carbon steel
Conditions: for Final weight (g) t+15 days: carbon steel plate coated with 20 g of product, oven at 50°C, 2 weeks; for % loss: weight loss of carbon steel plate, 50°C, t+15 days

SMILES	Final weight (g) t+15 days	% loss	Final weight (g) t+15 days (potassium salt)	% loss (potassium salt)
C=CC(=O)NC(C)(C)CS(=O)(=O)O [ATBS AH, 2-acrylamido-2-methylpropanesulphonic acid]	8.6582 g	7.46%	–	–
C=CC(=O)NC(C)(C)CS(=O)(=O)[O-].[K+] [ATBS.K AK2a, 2-acrylamido-2-methylpropanesulphonic acid potassium salt]	–	–	9.3526 g	1.79%
C=CC(=O)NC(C)(C)CS(=O)(=O)[O-].[K+] [ATBS.K CE-AK2c, 2-acrylamido-2-methylpropanesulphonic acid potassium salt]	–	–	9.1274 g	3.77%
C=CC(=O)NC(C)(C)CS(=O)(=O)[O-].[K+] [ATBS.K CE-AK2d, 2-acrylamido-2-methylpropanesulphonic acid potassium salt]	–	–	9.1210 g	2.44%
C=CC(=O)NC(C)(C)CS(=O)(=O)[O-].[K+] [ATBS.K CE-AK2e, 2-acrylamido-2-methylpropanesulphonic acid potassium salt]	–	–	9.0219 g	4.14%
